This is one part of the list.
Compound: Cc1cc(ccc1-c1ccccc1)C(=O)N1CCCN(CC1)C(=O)CCl [compound 10]
Assay: probe-labelled cysteine peptide fold change vs DMSO (competition) (log2 fold change); higher = less target engagement (more negative = stronger competition)
Details: THP-1, incubation time: 4 h
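Also: competitive profiling in live THP-1 cells: cysteine peptides tagged with an iodoacetamide desthiobiotin (IA-DTB) probe, intensity after compound treatment relative to DMSO-treated cells.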

Chains of the proteins cited; added tags and fusions are not shown. Lines headed by an entry give the natural chain unless they say otherwise; changes in a name come on top.
UniProt O43772: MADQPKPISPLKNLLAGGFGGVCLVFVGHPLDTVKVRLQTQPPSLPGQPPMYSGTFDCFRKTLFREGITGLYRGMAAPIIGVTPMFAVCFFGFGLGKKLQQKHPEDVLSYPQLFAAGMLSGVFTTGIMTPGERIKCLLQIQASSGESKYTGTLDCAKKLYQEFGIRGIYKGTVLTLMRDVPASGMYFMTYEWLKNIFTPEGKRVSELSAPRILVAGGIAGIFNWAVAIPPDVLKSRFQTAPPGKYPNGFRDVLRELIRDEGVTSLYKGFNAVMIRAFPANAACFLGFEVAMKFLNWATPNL
UniProt Q8IZD6: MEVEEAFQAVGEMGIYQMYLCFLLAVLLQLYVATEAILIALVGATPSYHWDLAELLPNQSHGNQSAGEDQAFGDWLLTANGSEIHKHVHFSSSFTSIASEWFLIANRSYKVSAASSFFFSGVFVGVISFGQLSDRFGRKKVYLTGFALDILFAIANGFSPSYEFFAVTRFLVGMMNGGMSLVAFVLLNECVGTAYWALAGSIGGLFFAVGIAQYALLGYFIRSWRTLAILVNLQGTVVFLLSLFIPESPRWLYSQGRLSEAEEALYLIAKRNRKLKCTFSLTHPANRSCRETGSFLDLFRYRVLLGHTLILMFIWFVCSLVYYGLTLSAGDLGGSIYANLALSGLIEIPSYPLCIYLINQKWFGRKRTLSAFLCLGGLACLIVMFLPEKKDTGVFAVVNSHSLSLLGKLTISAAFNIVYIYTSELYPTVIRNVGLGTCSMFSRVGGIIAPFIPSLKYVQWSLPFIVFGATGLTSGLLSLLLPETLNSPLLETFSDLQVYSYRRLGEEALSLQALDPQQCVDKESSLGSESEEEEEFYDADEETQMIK
UniProt Q15637: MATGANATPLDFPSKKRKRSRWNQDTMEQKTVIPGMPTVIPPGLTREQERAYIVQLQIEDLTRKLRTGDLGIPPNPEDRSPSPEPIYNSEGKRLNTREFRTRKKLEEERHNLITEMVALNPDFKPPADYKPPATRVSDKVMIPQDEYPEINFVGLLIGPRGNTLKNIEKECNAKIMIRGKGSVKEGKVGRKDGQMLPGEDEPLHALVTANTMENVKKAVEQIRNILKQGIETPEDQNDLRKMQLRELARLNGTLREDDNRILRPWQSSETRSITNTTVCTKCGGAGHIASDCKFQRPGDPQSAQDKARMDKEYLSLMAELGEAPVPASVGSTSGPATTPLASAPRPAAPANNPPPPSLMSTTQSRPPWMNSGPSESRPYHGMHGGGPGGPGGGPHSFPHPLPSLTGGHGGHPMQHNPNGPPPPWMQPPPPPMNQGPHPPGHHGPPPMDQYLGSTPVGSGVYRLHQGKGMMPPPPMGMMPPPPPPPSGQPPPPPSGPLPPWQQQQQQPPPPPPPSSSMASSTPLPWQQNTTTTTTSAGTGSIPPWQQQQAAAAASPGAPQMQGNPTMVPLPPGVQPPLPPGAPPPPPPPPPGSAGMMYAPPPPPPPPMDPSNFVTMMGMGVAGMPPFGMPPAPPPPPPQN
UniProt Q16181: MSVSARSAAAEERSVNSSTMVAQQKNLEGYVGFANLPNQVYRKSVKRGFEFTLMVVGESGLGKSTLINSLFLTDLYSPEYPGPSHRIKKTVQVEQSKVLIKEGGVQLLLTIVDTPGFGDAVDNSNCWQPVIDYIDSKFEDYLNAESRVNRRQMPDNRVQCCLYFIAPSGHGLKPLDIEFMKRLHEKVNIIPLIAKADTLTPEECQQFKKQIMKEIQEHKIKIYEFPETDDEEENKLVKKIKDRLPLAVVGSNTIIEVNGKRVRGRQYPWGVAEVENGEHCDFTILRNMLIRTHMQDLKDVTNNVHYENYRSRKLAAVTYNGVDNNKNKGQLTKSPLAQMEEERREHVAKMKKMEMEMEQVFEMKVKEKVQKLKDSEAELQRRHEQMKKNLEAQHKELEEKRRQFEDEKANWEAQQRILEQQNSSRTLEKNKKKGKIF
UniProt Q9Y6P5: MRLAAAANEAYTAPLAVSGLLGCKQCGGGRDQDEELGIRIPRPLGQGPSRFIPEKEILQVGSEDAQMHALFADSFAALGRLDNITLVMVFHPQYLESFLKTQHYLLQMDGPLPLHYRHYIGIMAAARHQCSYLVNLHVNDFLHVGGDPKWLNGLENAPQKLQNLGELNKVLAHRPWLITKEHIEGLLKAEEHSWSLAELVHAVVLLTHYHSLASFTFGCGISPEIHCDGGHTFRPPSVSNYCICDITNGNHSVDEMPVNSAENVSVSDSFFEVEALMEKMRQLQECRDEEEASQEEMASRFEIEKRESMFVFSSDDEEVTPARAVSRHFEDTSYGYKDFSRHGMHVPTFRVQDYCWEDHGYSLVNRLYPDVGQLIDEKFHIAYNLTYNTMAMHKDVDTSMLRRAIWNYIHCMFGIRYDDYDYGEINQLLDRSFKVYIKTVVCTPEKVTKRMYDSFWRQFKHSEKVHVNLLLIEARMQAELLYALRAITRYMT
UniProt Q9BYW2: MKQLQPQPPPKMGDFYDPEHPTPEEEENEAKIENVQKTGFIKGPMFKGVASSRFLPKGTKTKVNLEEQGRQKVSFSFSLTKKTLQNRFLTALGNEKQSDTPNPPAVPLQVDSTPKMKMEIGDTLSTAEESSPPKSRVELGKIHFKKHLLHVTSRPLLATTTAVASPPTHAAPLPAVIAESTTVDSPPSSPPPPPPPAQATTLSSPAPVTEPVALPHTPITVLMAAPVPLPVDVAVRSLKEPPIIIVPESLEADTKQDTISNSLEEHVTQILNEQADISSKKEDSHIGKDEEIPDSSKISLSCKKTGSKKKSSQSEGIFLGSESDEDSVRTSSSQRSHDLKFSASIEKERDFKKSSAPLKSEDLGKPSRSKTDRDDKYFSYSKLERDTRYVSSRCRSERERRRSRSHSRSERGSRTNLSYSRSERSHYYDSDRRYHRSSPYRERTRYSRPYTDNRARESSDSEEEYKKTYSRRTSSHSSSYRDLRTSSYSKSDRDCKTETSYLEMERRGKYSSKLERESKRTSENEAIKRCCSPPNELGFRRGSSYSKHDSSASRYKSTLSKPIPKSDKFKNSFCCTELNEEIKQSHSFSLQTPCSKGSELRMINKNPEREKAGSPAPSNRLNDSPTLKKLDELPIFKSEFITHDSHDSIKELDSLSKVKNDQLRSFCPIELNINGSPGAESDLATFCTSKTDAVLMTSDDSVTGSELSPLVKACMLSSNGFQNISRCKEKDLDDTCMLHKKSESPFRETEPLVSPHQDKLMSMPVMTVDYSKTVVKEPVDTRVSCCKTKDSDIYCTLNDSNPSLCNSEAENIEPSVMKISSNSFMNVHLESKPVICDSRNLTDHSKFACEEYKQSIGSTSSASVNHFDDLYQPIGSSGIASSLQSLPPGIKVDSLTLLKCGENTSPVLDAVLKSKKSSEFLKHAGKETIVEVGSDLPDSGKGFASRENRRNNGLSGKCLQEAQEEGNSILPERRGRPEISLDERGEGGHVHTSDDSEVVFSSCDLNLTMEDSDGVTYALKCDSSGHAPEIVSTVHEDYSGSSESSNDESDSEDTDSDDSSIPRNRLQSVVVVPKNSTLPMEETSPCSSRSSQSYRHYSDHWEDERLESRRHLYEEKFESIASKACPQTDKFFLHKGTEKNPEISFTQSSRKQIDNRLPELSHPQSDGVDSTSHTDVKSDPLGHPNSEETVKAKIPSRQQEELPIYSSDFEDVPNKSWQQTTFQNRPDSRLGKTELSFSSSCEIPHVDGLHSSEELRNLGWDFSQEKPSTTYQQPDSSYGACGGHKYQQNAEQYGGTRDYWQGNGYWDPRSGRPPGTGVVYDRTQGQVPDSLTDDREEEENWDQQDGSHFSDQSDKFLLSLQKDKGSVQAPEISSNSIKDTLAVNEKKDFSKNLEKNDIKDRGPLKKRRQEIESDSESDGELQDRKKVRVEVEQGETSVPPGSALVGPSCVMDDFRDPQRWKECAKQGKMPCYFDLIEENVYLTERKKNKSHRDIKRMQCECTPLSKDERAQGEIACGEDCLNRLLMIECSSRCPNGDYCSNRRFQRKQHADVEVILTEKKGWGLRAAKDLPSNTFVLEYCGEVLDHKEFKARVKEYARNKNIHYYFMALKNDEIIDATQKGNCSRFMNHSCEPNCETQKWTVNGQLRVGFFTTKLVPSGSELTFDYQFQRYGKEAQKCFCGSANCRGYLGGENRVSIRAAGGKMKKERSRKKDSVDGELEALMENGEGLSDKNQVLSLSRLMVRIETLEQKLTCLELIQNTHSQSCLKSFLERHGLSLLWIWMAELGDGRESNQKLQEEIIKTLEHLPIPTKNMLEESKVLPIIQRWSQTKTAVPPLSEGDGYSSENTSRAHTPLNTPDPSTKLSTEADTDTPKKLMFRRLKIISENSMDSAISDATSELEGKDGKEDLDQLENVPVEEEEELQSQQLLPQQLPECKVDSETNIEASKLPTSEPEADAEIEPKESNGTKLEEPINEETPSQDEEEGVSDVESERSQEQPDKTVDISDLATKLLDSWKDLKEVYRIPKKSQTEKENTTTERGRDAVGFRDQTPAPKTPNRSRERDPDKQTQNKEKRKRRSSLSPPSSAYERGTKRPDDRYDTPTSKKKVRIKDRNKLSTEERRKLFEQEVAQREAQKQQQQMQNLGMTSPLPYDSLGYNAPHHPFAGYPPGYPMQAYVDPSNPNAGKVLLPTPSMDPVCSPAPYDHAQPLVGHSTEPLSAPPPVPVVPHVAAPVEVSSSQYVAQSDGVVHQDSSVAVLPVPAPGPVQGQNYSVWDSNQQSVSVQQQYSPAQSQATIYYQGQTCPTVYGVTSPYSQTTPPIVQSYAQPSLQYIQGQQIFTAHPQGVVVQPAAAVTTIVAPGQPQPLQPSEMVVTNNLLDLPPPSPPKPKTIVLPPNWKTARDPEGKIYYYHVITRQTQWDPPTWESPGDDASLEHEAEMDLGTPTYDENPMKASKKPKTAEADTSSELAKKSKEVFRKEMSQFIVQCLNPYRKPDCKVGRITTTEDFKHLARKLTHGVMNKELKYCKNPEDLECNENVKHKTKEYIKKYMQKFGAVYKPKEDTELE
UniProt P55011: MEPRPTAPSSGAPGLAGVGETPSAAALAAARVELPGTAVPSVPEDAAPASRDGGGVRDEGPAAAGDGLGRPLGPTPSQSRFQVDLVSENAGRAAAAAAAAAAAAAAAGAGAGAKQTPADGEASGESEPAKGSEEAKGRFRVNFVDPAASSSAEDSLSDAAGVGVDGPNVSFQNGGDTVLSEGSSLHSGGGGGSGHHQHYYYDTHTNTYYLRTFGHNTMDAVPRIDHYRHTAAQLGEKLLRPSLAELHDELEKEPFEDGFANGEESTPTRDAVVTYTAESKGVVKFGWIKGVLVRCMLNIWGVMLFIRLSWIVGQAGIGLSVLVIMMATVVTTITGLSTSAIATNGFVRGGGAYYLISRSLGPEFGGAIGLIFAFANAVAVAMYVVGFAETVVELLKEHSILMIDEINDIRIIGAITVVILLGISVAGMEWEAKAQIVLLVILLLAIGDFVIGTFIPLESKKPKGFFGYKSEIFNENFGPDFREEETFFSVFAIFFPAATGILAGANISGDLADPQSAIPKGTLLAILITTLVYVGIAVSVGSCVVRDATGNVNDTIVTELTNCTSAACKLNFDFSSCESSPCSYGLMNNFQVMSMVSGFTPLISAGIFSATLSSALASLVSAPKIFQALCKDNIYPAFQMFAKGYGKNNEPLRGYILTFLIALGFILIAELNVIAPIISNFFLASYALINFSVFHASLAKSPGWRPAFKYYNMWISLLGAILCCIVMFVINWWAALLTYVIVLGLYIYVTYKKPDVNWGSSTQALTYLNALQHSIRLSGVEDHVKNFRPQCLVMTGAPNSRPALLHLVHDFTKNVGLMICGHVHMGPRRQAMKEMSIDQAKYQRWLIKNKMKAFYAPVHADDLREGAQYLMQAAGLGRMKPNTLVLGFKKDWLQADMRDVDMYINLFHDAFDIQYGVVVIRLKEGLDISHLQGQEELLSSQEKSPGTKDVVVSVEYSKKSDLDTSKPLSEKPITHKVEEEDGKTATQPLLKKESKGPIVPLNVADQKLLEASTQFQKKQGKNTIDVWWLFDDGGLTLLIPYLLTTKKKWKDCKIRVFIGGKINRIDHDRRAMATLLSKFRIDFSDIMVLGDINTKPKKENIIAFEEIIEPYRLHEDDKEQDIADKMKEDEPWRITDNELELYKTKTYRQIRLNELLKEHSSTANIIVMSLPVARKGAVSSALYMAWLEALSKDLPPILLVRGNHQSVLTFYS
UniProt P53007, whole entry, looked up: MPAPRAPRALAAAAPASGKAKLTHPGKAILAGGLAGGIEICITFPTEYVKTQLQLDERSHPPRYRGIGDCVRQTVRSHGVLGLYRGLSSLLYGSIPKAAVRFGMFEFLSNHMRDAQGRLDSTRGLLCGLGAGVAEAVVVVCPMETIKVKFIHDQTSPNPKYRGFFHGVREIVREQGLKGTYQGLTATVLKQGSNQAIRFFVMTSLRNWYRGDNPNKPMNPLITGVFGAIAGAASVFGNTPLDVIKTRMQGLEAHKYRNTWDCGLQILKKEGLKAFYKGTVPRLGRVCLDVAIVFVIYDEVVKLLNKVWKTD

| Target | probe-labelled cysteine peptide fold change (10 µM) | probe-labelled cysteine peptide fold change (50 µM) |
| --- | --- | --- |
| SLC25A20_O43772_23_NLLAGGFGGVCLVFVGHPLDTVK (UniProt O43772) | -0.0809 | 0.136 |
| SLC22A15_Q8IZD6_438_NVGLGTCSMFSR (UniProt Q8IZD6) | 0.0942 | -0.0742 |
| SF1_Q15637_292_CGGAGHIASDCK (UniProt Q15637) | 0.0464 | 0.00531 |
| SEPT7_Q16181_280_QYPWGVAEVENGEHCDFTILR (UniProt Q16181) | -0.0371 | -0.00862 |
| SKAP2_O75563_185+186_DCCFEISAPDKR (UniProt O75563) | 0.206 | -0.405 |
| SESN1_Q9Y6P5_286_QLQECRDEEEASQEEMASR (UniProt Q9Y6P5) | 0.0129 | 0.0662 |
| SIK3_Q9Y2K2_290_IPFFMSTECEHLIR (UniProt Q9Y2K2) | -0.0505 | -0.135 |
| SLC25A16_P16260_246_THVNLLCGGVAGAIAQTISYPFDVTR (UniProt P16260) | 0.291 | 0.596 |
| SERGEF_Q9UGK8_73_ITGGGGHSAVVTDGGDLFVCGLNK (UniProt Q9UGK8) | 0.122 | -0.0198 |
| SLC25A10_Q9UBX3_240_LMNSKGEYQGVFHCAVETAK (UniProt Q9UBX3) | -0.116 | -0.449 |
| SETD2_Q9BYW2_2532_NPEDLECNENVK (UniProt Q9BYW2) | 0.506 | 0.0337 |
| SIN3A_Q96ST3_551_ATEGIAMEIDYASCK (UniProt Q96ST3) | -0.0731 | -0.00474 |
| SH3GLB2_Q9NR46_252_CLHEFVK (UniProt Q9NR46) | -0.039 | -0.347 |
| SLC12A2_P55011_791_NFRPQCLVMTGAPNSRPALLHLVHDFTK (UniProt P55011) | -0.135 | -0.136 |
| SETD2_Q9BYW2_1766_LTCLELIQNTHSQSCLK (UniProt Q9BYW2) | 0.117 | 0.068 |
| SF3A3_Q12874_103_KHPNEICVPMSVEFEELLK (UniProt Q12874) | -0.0763 | -0.0663 |

At a glance, part of the list above:

| Target | probe-labelled cysteine peptide fold change (10 µM) | probe-labelled cysteine peptide fold change (50 µM) |
| --- | --- | --- |
| SF1_Q15637_292_CGGAGHIASDCK (UniProt Q15637) | 0.0464 | 0.00531 |
| SEPT7_Q16181_280_QYPWGVAEVENGEHCDFTILR (UniProt Q16181) | -0.0371 | -0.00862 |

The list goes on:

| Target | probe-labelled cysteine peptide fold change (10 µM) | probe-labelled cysteine peptide fold change (50 µM) |
| --- | --- | --- |
| SERINC3_Q13530_72_KIPGFCEGGFK (UniProt Q13530) | -0.0848 | 0.135 |
| SFMBT2_Q5VUG0_560_CVLVLK (UniProt Q5VUG0) | 0.0305 | 0.211 |
| SEPT9_Q9UHD8_411_VHCCLYFIPATGHSLRPLDIEFMK (UniProt Q9UHD8) | -0.0585 | -0.0235 |
| SHTN1_A0MZ66_442_GCESAVDELK (UniProt A0MZ66) | -0.093 | -0.147 |
| SERPINB6_P35237_350_FCADHPFLFFIQHSK (UniProt P35237) | -0.116 | -0.0597 |
| SLC25A1_P53007_262_NTWDCGLQILK (UniProt P53007) | 0.0653 | -0.00694 |
| SF1_Q15637_282+292_CGGAGHIASDCK (UniProt Q15637) | 0.0743 | -0.0388 |
| SIRT3_Q9NTG7_256+259_LVEAHGTFASATCTVCQRPFPGEDIR (UniProt Q9NTG7) | 0.0105 | -0.301 |
| SLC25A1_P53007_127_GLLCGLGAGVAEAVVVVCPMETIK (UniProt P53007) | 0.0716 | 0.146 |
| SHMT1_P34896_68_AVLEALGSCLNNK (UniProt P34896) | 0.0819 | 0.0484 |
| SETD2_Q9BYW2_900_CGENTSPVLDAVLK (UniProt Q9BYW2) | 0.00684 | -0.355 |
| SEPT7_Q16181_204_ADTLTPEECQQFK (UniProt Q16181) | 0.0143 | 0.303 |
| SETD3_Q86TU7_36_CSSPAPGPGK (UniProt Q86TU7) | -0.0291 | -0.0265 |
| SETX_Q7Z333_1398_AGSHTAQNSDIFVPESDRSDYNCTGGTEVLANSNR (UniProt Q7Z333) | -0.398 | -0.305 |
| SLC25A12_O75746_375_NSFDCFK (UniProt O75746) | 0.0316 | 0.446 |
| SGK3_Q96BR1_13_ESCPSVSIPSSDEHREK (UniProt Q96BR1) | -0.152 | -0.389 |
